Reference: the supplement of paper PMC8256030
Some of the results follow. Single values are uncertain here, since repeats match poorly.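 HEK293T cells were given each compound shortly before transfection with a reporter in which red mCherry is followed by the SARS-CoV-2 frameshift element and then GFP in the −1 frame, so GFP appears only after frameshifting.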

Test system: HEK293T
Experiment: percent viability (nuclei count) relative to control; higher = more viable cells
Settings: 10 µM; 24 h

Structure (SMILES): CCOC(=O)[C@H]1O[C@@H]1C(=O)N[C@@H](CC(C)C)C(=O)NCCC(C)C [aloxistatin]
- percent viability: 206%

Structure (SMILES): CCc1ncnc2cc(OC)c(OC)cc12 [quazodine]
- percent viability: 139%

Structure (SMILES): CCC(C(=O)OCCOCCN(CC)CC)c1ccccc1 (stereo not drawn) [butamirate]
- percent viability: 298%

Structure (SMILES): CC(C)NCC(O)COc1ccc(COCCOC(C)C)cc1 (stereo not drawn)
- percent viability: 212%

Structure (SMILES): CCCNC(C)(C)COC(=O)c1ccccc1
- percent viability: 322%

Structure (SMILES): CCCNC(=O)NS(=O)(=O)c1ccc(Cl)cc1 [chlorpropamide]
- percent viability: 106%

Structure (SMILES): O=C(O)C1CSCN1 (stereo not drawn) [timonacic]
- percent viability: 373%

Structure (SMILES): CNC(=C[N+](=O)[O-])NCCSCc1csc(CN(C)C)n1
- percent viability: 162%

Structure (SMILES): C=CCNC(N)=S [allylthiourea]
- percent viability: 212%

Structure (SMILES): NS(=O)(=O)c1cc(C(=O)O)cc(N2CCCC2)c1Oc1ccccc1 [piretanide]
- percent viability: 103%

Structure (SMILES): NC12CC3CC(CC(C3)C1)C2
- percent viability: 101%

Structure (SMILES): O=c1[nH]cnc2c1ncn2[C@H]1CC[C@@H](CO)O1 [didanosine]
- percent viability: 236%

Structure (SMILES): Clc1ccc(OCC2=NCCc3ccccc32)cc1 [famotine]
- percent viability: 234%

Structure (SMILES): CC(C)=CCC[C@](C)(O)[C@@H]1CC=C(C)CC1 [levomenol]
- percent viability: 97.7%

Structure (SMILES): CCN1CCN(C(=O)N[C@@H](C(=O)N[C@@H]2C(=O)N3[C@@H]2SC(C)(C)[C@@H]3C(=O)O)c2ccccc2)C(=O)C1=O [Piperacillin]
- percent viability: 186%

Structure (SMILES): CN(C/C=C/c1ccccc1)Cc1cccc2ccccc12 [naftifine]
- percent viability: 279%

Structure (SMILES): NC1=NCC2c3ccccc3Cc3ccccc3N12 (stereo not drawn) [epinastine]
- percent viability: 135%

Structure (SMILES): C[n+]1ccccc1/C=N/O
- percent viability: 450%
